Experimental data from PMC7278553, “Blocking interaction between SHP2 and PD‐1 denotes a novel opportunity for developing PD‐1 inhibitors” (EMBO Molecular Medicine, 2020).
No constants are given. Whether binding was seen depends on the method and setting. For part of these data: In cells and extracts the contact can be indirect. Some entries that bind do so weakly or less than the wild type.

Legend:
[1] = biological target: synthesized peptide covering Y248-phosphorylated ITSM of human PD-1 (human); experiment: ELISA; phosphopeptide coated at 4 μg/ml; hSHP2-Fc 500 ng/ml added with phosphatase inhibitor cocktail, 1 h at RT; HRP anti-Fc tag antibody; with MB; both purified
[2] = biological target: FGFR1 fused to the C-terminal half of luciferase (UniProt P11362); experiment: split reporter; split luciferase in 293T co-transfected with EGFR-C-Luc or FGFR1-C-Luc and hSHP2-N-luc; MB for 6 h
FGFR1, 3×FLAG-tagged = FGFR1, 3×FLAG-tagged (UniProt P11362); experiment: co-IP; 293T co-transfected; serum-starved 12 h, then complete medium and MB for 2 h; NP40 lysis buffer; IP anti-FLAG, blot anti-EGFR or anti-HA

Substance: purified recombinant human SHP2-Fc (from UniProt Q06124 1-593) (Fc fusion)
- binding [1]: binds

Substance: human SHP2 fused to the N-terminal half of firefly luciferase, in 293T cells (from UniProt Q06124 1-593) (enzyme)
- binding [2]: binds

Substance: SHP2, HA-tagged (from UniProt Q06124 1-593) (enzyme)
- binding (FGFR1, 3×FLAG-tagged): binds
